Laboratory results published in US9409952B2, “Peptide-compound cyclization method” (Chugai Seiyaku Kabushiki Kaisha, priority 2011, dated 2016).

Experiment: PAMPA (parallel artificial membrane permeability assay)
Type: in vitro ADME
Procedure: 4 μL of a phospholipid-organic solvent solution composed of 10% (w/v) of egg lecithin, 0.5% (w/v) of cholesterol and dodecane (all purchased from Fluka) was added to a Millipore 96-well membrane filter (hydrophobic PVDF (polyvinylidene difluoride), pore size 0.45 microm) (purchased from Millipore Japan) to make an artificial phospholipid membrane.
A DMSO solution containing the compound at a concentration of 10 mM was added in a percentage of 0.5% (v/v) to a 50 mM MOPSO buffer, pH 6.5, containing 5.0% (w/v) of glycocholic acid, and 330 μL of the mixture was added to a 96-well plate made of Teflon (donor plate). […] These plates were allowed to stand at 37° C. for 18 hours, after which the concentrations of the compound in the solutions in the donor plate and the acceptor plate were measured by LC/MS or LC/UV, and the membrane permeation rate of the compound (Pe) was calculated by the following formulas (1) and (2), where t is the testing time, A is the membrane filter area, VD is the amount of the donor solution, VA is the amount of the acceptor solution, CD,t is the concentration of the compound in the donor solution at the time t, and CA,t is the concentration of the compound in the acceptor solution at the time t.

**Q.** For NS(=O)(=O)c1cc(C(=O)O)c(NCc2ccco2)cc1Cl [furosemide, reference compound], which Papp at 18 h, 50 µM is on record?
**A.** The Papp at 18 h, 50 µM was 15 nm/s.
